Data reported in doi:10.1101/2023.08.10.552743.
Residue numbers refer to the chain shown, from its start. Like-named read-outs stand apart in the source and are kept apart here. No constants are given. Whether binding was seen depends on the method and setting. Binding seen in cells or lysates may run through a third protein. Some binding calls cover weakened binding; strength is not graded here. Sequences can lack the tags named with a protein.

Amino acid sequences for entries named in this document (tags omitted).
UniProt Q9NV88: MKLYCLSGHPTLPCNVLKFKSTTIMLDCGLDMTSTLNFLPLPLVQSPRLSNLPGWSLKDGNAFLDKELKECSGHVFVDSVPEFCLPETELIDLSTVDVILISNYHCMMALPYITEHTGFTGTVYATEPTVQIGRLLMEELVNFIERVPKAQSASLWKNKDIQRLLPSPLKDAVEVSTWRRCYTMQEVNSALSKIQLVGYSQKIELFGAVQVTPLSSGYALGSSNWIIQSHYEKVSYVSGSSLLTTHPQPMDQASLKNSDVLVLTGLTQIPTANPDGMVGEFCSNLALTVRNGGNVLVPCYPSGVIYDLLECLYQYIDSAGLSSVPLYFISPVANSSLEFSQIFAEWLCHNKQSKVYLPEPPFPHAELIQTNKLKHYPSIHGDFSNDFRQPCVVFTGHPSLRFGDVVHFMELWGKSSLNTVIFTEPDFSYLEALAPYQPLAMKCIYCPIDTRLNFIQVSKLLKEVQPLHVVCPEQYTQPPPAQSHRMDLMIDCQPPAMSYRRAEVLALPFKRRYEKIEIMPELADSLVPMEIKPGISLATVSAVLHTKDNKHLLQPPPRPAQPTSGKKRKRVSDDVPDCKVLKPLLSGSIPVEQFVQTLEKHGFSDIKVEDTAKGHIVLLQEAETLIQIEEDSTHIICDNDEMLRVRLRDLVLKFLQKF
UniProt Q5TA45: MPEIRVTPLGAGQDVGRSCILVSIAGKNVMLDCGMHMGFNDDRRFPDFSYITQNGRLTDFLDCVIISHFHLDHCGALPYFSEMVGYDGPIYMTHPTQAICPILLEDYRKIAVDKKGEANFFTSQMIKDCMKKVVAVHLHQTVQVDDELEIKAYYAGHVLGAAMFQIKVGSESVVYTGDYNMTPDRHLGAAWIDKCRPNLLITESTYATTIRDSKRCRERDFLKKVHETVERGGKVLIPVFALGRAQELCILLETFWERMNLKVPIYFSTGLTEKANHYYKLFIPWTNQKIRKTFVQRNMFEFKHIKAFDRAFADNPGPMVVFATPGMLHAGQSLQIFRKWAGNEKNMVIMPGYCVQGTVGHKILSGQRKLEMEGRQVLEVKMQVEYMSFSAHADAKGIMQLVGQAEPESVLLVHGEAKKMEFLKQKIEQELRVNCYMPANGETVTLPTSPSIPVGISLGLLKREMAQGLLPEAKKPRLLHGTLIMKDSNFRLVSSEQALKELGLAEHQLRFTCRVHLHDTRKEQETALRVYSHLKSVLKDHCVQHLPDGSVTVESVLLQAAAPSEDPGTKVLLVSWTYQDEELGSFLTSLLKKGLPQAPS

Columns and labels:
Assay in all cases: co-IP
[1] = biological target: T1, Flag-BRAT1 wild type (human) (UniProt Q6PJG6)
T1 sequence: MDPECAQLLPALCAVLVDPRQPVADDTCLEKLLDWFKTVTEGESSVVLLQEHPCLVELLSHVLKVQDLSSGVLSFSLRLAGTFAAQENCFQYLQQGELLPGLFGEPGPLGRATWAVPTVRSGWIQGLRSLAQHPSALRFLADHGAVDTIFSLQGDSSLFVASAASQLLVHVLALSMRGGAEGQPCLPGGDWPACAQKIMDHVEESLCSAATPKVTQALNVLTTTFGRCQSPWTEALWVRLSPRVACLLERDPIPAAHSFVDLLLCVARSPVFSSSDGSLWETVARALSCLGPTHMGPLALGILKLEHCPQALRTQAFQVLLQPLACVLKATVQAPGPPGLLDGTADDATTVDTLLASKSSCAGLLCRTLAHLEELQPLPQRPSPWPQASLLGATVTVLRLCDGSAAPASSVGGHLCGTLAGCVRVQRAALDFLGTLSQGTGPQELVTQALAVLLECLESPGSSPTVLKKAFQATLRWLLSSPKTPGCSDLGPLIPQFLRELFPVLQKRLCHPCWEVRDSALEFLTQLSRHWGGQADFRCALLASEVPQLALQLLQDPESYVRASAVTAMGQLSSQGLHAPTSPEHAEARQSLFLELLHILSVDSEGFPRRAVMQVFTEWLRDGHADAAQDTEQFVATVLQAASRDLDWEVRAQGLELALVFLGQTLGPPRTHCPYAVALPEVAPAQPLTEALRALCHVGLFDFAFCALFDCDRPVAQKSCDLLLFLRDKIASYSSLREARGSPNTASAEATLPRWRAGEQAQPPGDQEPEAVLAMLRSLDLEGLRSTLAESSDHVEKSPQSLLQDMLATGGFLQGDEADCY

[2] = biological target: T2, Flag-BRAT1 V62E (human) (UniProt Q6PJG6)
T2 sequence: T1 sequence with V62E

[3] = biological target: T3, Flag-BRAT1 E522K (human) (UniProt Q6PJG6)
T3 sequence: T1 sequence with E522K

[4] = biological target: T1, Flag-BRAT1 wild type (human); remark: listed apart in the source

binding [1]	binding [2]	binding [3]	binding [4]	Substance
binds	binds	no binding	binds	INTS9 (endogenous, HEK293T) (from UniProt Q9NV88 1-658)
binds	binds	no binding	binds	INTS11 (endogenous, HEK293T) (from UniProt Q5TA45 1-600)
